These are yes or no findings as the source states them, for the method shown. Binding seen in cells or lysates may run through a third protein. A yes stands for co-enrichment or nearness to the bait. Other partners may have been found. Where a sequence is shown, tags or fusion partners need not be part of it.
Biological target: T1, Flag-tagged NUPR1 (nuclear protein 1) (UniProt O60356)
T1 sequence: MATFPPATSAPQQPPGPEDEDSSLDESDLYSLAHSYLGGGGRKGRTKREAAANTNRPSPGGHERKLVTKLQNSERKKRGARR
Assay: affinity purification with mass spectrometry; anti-Flag Co-IP from lysates of Flag-tagged NUPR1-overexpressing cells, LC-MS/MS

Sequences of proteins named here, by UniProt entry; tags and fusion partners are left off. Residues count along the entry.
UniProt P35869, residues 11-848: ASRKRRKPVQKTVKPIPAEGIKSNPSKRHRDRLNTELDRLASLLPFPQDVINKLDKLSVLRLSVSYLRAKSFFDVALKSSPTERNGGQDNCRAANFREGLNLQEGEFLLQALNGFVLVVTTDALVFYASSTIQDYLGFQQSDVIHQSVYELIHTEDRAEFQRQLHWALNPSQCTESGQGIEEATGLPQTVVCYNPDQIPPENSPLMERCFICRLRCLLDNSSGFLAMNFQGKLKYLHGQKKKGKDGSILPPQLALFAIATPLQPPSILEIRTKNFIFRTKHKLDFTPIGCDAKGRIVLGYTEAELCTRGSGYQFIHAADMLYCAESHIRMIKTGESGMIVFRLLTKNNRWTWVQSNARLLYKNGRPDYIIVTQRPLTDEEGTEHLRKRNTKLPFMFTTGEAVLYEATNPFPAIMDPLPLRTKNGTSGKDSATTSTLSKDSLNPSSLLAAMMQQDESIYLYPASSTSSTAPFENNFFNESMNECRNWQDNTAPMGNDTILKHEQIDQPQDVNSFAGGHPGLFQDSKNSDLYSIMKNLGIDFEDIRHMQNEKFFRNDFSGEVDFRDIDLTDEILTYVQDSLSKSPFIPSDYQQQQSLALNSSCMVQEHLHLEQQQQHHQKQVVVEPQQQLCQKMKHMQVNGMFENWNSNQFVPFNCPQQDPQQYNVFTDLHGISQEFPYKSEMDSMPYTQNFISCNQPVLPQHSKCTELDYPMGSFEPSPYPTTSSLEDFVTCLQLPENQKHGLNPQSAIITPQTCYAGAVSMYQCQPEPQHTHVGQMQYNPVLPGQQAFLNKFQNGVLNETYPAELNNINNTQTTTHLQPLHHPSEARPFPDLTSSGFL

- binding: binds
Substance: aryl hydrocarbon receptor (AhR) (from UniProt P35869 11-848)
